Results from patent US5554608A, “Inhibition of hair growth” (priority 1994, dated 1996).

System: PKC
Experiment: PKC activity assay in flank organ hair follicle homogenate (32P phosphorylation of acetylated-myelin basic protein)
Type: biochemical, Golden Syrian hamster
Conditions: at 500 μM
Description: PKC activity was assayed in hair follicles isolated from flank organs using a commercial assay kit obtained from GIBCO BRL (Gaithersburg, Md.). The assay is based on the phosphorylation (incorporation of ^32 -P into) of acetylated-myelin basic protein. After isolation, the flank organ hair follicles were washed in phosphate-buffered saline and homogenized in a buffer containing 20 mM Tris, pH 7.5, 0.5 mM EDTA, 0.5% Triton X-100, 10 mM β-mercaptoethanol, and 25 μg/each of the protease inhibitors aprotinin and leupeptin. The hair follicle homogenate was added to the PKC reaction mixture at a final concentration of 10-20 μg/assay. The assay also included buffer, H2 O, phospholipid. The assay was performed in the presence or absence of select PKC inhibitors. The reaction mixture volume was 50 μl, the ^32 P-ATP substrate was added in a volume of 10 μl. The reaction proceeded at 32° for 15 minutes, whereupon a 16.3 μL aliquot was removed from the reaction mixture and spotted onto a paper filter. Filters were washed twice in 1% phosphoric acid with gentle shaking for 5 minutes. Filters were then washed twice in H2 O and placed in scintillation vials. ^32 P-Incorporation, a measure of the enzyme activity, was determined using standard liquid scintillation techniques.

In the case of `CSc1ccc2c(c1)N(CCC1CCCCN1C)c1ccccc1S2` (stereo not shown) [Thioridazine], the “inhibition of PKC activity” value is reported as 30%.
